Experimental data from patent US20070232527A1, “Medicaments and methods combining a HCV protease inhibitor and an AKR competitor” (priority 2005, published 2007).

What was measured:
[1] = test system: cytosolic enzymes that convert Formula Ia to Formula Ia′; experiment: Inhibition of metabolism of 14C-Formula Ia to Formula Ia′ in human liver cytosol; settings: pH 7.4
[2] = test system: cytosolic enzymes that convert Formula Ia to Formula Ia′; experiment: in vitro; settings: human
[3] = pH 7.4, % Inhibition on Metabolite Formation of Compound Formula Ia

| Compound | inhibition at 120 min, 100 µM [1] [%] | inhibition at 120 min, 100 µM [2, 3] [%] | inhibition at 120 min, 100 μM [2, 3] [%] | inhibition at 2 h, 100 µM ([2]; pH 7.4, % of Inhibition on Metabolite Formation of Compound Formula Ia) [%] |
| --- | --- | --- | --- | --- |
| CN1C(=O)CN=C(c2ccccc2)c2cc(Cl)ccc21 [Diazepam] | 75 | – | – | – |
| COc1ccc2cc([C@H](C)C(=O)O)ccc2c1 [Naproxen] | – | 44.7 | 44.7 | 44.7 |
